Results as given in PubChem BioAssay AID2685 (National Center for Advancing Translational Sciences (NCATS), 2010).
The list shows a part of the results. These are further read-outs of the screen, such as a control signal, another cell line or another target. No call is given for them. Most of these compounds were active or inconclusive in the main read-out, so they are no random draw. Words in brackets tell the shape of the fitted curve; partial curves, single points and poor fits give uncertain potencies.

Test: qHTS Assay for Lipid Storage Modulators in Drosophila S3 Cells;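 on cell number change: cells counted by Cell Tracker Red CMTPX staining in the red channel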
Conditions: BODIPY lipid droplet fluorescence, 18-24 h; for cell number change: measured here: cell count max response, cells fed with added oleic acid
Outline: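 Drosophila S3 cells got compounds at several concentrations plus oleic acid (400 uM solution). Laser-scanning cytometry with 488 nm excitation read lipid droplets at 500-530 nm and cells at 575-640 nm. Percent activity was relative to 20 uM Triacsin C.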

[1] = measured here: lipid fluorescence (Fed channel) AC50, cells fed with added oleic acid
[2] = measured here: cell number channel AC50, cells fed with added oleic acid

| Compound | cell number change [%] | AC50 [1] | AC50 [2] |
| --- | --- | --- | --- |
| Cc1ccc(C(=O)COC(=O)c2cccc([N+](=O)[O-])c2)s1 | -6.74 | – | – |
| CCCn1c(=O)c(C(=O)N/N=C/c2ccccc2F)c(O)c2ccccc21 | -4.65 | – | – |
| Cc1ccc(C2OC(=O)c3ccccc32)cc1 (stereo unspecified) | -13.2 | 14.6 µM [rising, partial curve] | – |
| CN(C)c1ccc2c3c(cccc13)C(=O)N(c1ccccc1)C2=O | -4.43 | 29.1 µM [falling, single point] | – |
| O=C(CCCc1cccs1)Nc1nccs1 | 40.9 | – | – |
| CC(C)(C)C(=O)Nc1scc(-c2ccc(-c3ccccc3)cc2)c1C(=O)O | -29.1 | – | – |
| Cc1ccc2nc(SCC(=O)Nc3nnc(SCC(N)=O)s3)[nH]c2c1 | 41.7 | – | – |
| CC1(NC(=O)CCS(=O)(=O)c2ccc(Cl)cc2)CCS(=O)(=O)C1 (stereo unspecified) | 26.6 | 20.6 µM [rising, partial curve] | – |
| CC(=O)c1sc(NC(=O)CS(=O)(=O)c2ccccc2)nc1-c1ccccc1 | – | 1.64 µM [falling, partial curve] | – |
| Cc1ccccc1C(=O)N1CCC(C(=O)NN2C(=O)NC3(CCCCC3)C2=O)CC1 | 4.15 | 0.231 µM [falling, full curve] | – |
| CCc1ccc(NC(=O)c2cnccn2)cc1 | 34 | – | – |
| O=C(OCC(=O)N1CCCCC1)c1ccc2c(c1)C(=O)N(Cc1ccco1)C2=O | -0.251 | 29.1 µM [falling, single point] | – |
| CN(C)c1ccc(/C=C/C(=O)c2cccnc2)cc1 | 15.1 | 0.82 µM [rising, single point] | – |
| O=C1C2C3c4ccccc4C(c4ccccc43)C2C(=O)N1CN1CCOCC1 (stereo unspecified) | -9.41 | 3.26 µM [falling, single point] | – |
| Cc1onc(-c2ccccc2Cl)c1-c1nc(-c2ccccn2)no1 | -24.2 | 16.4 µM [falling, single point] | – |
| CCN(C(=O)COC(=O)c1ccc2c(c1)OCO2)c1c(N)n(Cc2ccccc2)c(=O)[nH]c1=O | 11.2 | 0.00517 µM [rising, full curve, poor fit] | – |
| Cn1c(=O)[nH]c(=O)c2c1nc1n2CCCN1CCc1ccccc1 | 8.43 | 2.31 µM [rising, full curve] | – |
| Cc1[nH]n(C(N)=S)c(=O)c1N=Nc1ccc2ccccc2c1 | -41.8 | – | 2.31 µM [rising, partial curve] |
| COc1ccc(C2SCC(=O)N2C)cc1 (stereo unspecified) | -46.3 | 6.51 µM [falling, partial curve] | 6.51 µM [falling, full curve] |
| CC1CCCN(S(=O)(=O)c2cccc([N+](=O)[O-])c2)C1 (stereo unspecified) | 17.9 | 0.731 µM [falling, single point] | – |
| CSc1ccccc1NC(=O)c1ccoc1C | 29.9 | 20.6 µM [rising, single point] | – |
| Cc1nc2ccccc2c2oc(C(=O)N3CCc4ccccc4C3)cc12 | 49 | 1.3 µM [rising, full curve] | 0.517 µM [rising, full curve] |

Part of the list above, reformatted:
Compound	cell number change [%]	AC50 [1]	AC50 [2]
CN(C)c1ccc2c3c(cccc13)C(=O)N(c1ccccc1)C2=O	-4.43	29.1 µM [falling, single point]	–
O=C(CCCc1cccs1)Nc1nccs1	40.9	–	–

Next entries

| Compound | cell number change [%] | AC50 [1] | AC50 [2] |
| --- | --- | --- | --- |
| O=C(O)c1ccc(CSC2CCCCC2)cc1 | 56.3 | 14.6 µM [rising, partial curve] | 16.4 µM [rising, partial curve, poor fit] |
| Cc1ccccc1C(=O)N1CCC(C(=O)Nc2cccc(F)c2)CC1 | -11.3 | – | – |
| CC(=O)c1ccc(OCCCC(=O)NCc2nnc3ccccn23)cc1 | 0.549 | 3.26 µM [rising, single point] | – |
| C/C=C/c1ccc(OCCOCCOc2cccc3cccnc23)c(OC)c1 | 56.8 | 0.651 µM [rising, partial curve, poor fit] | 0.651 µM [rising, full curve] |
| O=C(CC1SC(=NCCc2ccccc2)N(/N=C/c2cccs2)C1=O)Nc1ccc(Cl)cc1 (stereo unspecified) | -1.6 | 32.6 µM [falling, single point] | – |
| O=C(Oc1ccc(Br)cc1)c1cccc(S(=O)(=O)N2CCOCC2)c1 | -23.8 | 29.1 µM [falling, single point] | – |
| COc1cccc(C(=O)CN2C(=O)C(C)(C)Oc3ccc(C(=O)N4CCOCC4)cc32)c1 | -13.9 | 29.1 µM [falling, single point] | – |
| O=C(O)CC(NS(=O)(=O)c1ccc(Br)cc1)c1ccco1 (stereo unspecified) | -6.46 | 32.6 µM [falling, partial curve] | – |
| O=C(O)c1c(Cl)c(Cl)c(Cl)c(Cl)c1C(=O)N1CCCCCC1 | -11.8 | – | – |
| O=[N+]([O-])c1ccccc1N/N=C\c1ccccc1Cl | -21.2 | 20.6 µM [falling, single point] | – |
| COc1ccccc1N1CCN(S(=O)(=O)CCNC(=O)c2cc(=O)c3ccccc3o2)CC1 | 4.96 | 6.51 µM [falling, single point] | – |
| O=C(CSc1nnc(NC(=O)c2ccco2)s1)Nc1ccccc1F | – | 0.164 µM [rising, full curve, poor fit] | – |
| CC(C(=O)NCC1CCCO1)n1cccc1C(=O)c1ccccc1 (stereo unspecified) | -22 | 0.206 µM [falling, full curve, poor fit] | – |
| C/C(=N\NS(=O)(=O)c1ccc(Br)cc1)c1ccc(-n2ccnc2)cc1 | -6.64 | 0.00461 µM [falling, full curve, poor fit] | – |
| COc1ccc(-c2nnc(SCC(=O)Nc3sc4c(c3C#N)CCCC4)n2-c2ccccc2)cc1 | 13.4 | 2.59 µM [rising, full curve, poor fit] | – |
| Cc1ccc2sc(N(CCCN(C)C)C(=O)CCS(=O)(=O)c3ccccc3)nc2c1C | -16.4 | 29.1 µM [falling, single point] | – |
| Cc1sc(NC(=S)NC(=O)CCc2ccccc2)c(C(N)=O)c1C | 66.7 | – | 29.1 µM [rising, partial curve, poor fit] |
| CNC(=O)c1c(NC(=O)CS(=O)(=O)c2ccccc2)sc(C)c1C | – | 4.11 µM [rising, full curve] | – |
| COc1ccccc1N1CCN(C(=O)CSc2nc(C)c(Cc3ccccc3)c(=O)[nH]2)CC1 | -13.3 | – | – |
| CCSC(=O)N(CC)CC(=O)Nc1c(CC)cccc1CC | -13.3 | 32.6 µM [falling, partial curve, poor fit] | – |
| Cc1ccc(/C=N\NC(=O)c2cc([N+](=O)[O-])cc([N+](=O)[O-])c2)o1 | -14 | 0.146 µM [falling, full curve, poor fit] | – |
| CCCN(CCC)c1ccc(C(O)c2nnc(-c3ccccc3)o2)cc1 (stereo unspecified) | -54 | – | 11.6 µM [falling, partial curve, poor fit] |

Molecules listed so far containing bromine (three):

| Compound | cell number change [%] | AC50 [1] | AC50 [2] |
| --- | --- | --- | --- |
| O=C(Oc1ccc(Br)cc1)c1cccc(S(=O)(=O)N2CCOCC2)c1 | -23.8 | 29.1 µM [falling, single point] | – |
| O=C(O)CC(NS(=O)(=O)c1ccc(Br)cc1)c1ccco1 (stereo unspecified) | -6.46 | 32.6 µM [falling, partial curve] | – |
| C/C(=N\NS(=O)(=O)c1ccc(Br)cc1)c1ccc(-n2ccnc2)cc1 | -6.64 | 0.00461 µM [falling, full curve, poor fit] | – |

The list goes on:

| Compound | cell number change [%] | AC50 [1] | AC50 [2] |
| --- | --- | --- | --- |
| Cc1ccccc1NC(=O)c1cc(N)ccc1N1CCCCC1 | – | – | 0.326 µM [rising, single point] |
| COc1ccc(-c2csc3ncnc(N4CCN(CCO)CC4)c23)cc1 | -42.3 | – | 0.731 µM [falling, full curve] |
| O=C(NCc1ccco1)c1nc2c(nnn2Cc2cccc(Cl)c2)c(=O)[nH]1 | 1.03 | 14.6 µM [rising, single point] | – |
| COc1ccc(NC(=S)NC(C)Cc2cccs2)cc1 (stereo unspecified) | 12.6 | – | – |
| Cc1ccccc1NC(=S)N(C)Cc1cn(C)c2ccccc12 | – | 29.1 µM [falling, single point] | – |
| CCc1ccc(Nc2n[n+](-c3ccccc3)c(-c3cccc(C)c3)s2)cc1 | -29.2 | – | – |
| CN1CCN(CCCNC(=O)c2ccc3c(Cl)c4c(nc3c2)CCCC4)CC1 | 10.4 | 0.164 µM [rising, full curve, poor fit] | – |
| O=C(N/N=C\c1ccc(Cl)cc1)c1sccc1-n1cccc1 | -30.1 | – | 32.6 µM [falling, single point] |
| Cc1ccc(C(=O)COC(=O)CN2C(=O)C3C4CCC(C4)C3C2=O)cc1C (stereo unspecified) | -19.9 | – | – |
| Cc1cc(=O)nc2c3ccccc3n(C(C)C(=O)Nc3c(F)c(F)c(F)c(F)c3F)n12 (stereo unspecified) | 12.4 | – | – |
| COC(=O)c1cccc(S(=O)(=O)N2CCOCC2)c1 | -66.4 | 4.11 µM [falling, full curve] | 16.4 µM [falling, partial curve] |
| COc1cccc(CN(C)CC(=O)NCc2ccccc2Cl)c1 | -3.54 | 29.1 µM [falling, single point] | – |
| COc1ccc(S(=O)(=O)N2CCCCC2)cc1NC(=O)CCCOc1ccccc1 | -0.342 | 0.0517 µM [falling, full curve, poor fit] | – |
| O=C(C1=C[C@@H](c2coc3ccccc3c2=O)C[C@@H](OCCCCO)O1)N1CCOCC1 | 34.1 | – | – |
| OCC[C@@H]1C[C@@H](O)[C@H](O)[C@]2(OCCCc3ccccc32)O1 | 24.6 | 0.146 µM [falling, full curve, poor fit] | – |
| COc1ccc(CCNc2nc(-c3sc(N)nc3C)cs2)cc1OC | -6.71 | 2.91 µM [rising, partial curve] | – |
| COc1cccc(/C=C/C(=O)OCC(=O)N2CCN(S(=O)(=O)c3ccc(Cl)cc3)CC2)c1 | 10.2 | 1.46 µM [rising, full curve, poor fit] | – |
| Cc1ccc(NC(=O)C2CCN(S(=O)(=O)c3c(C)noc3/C=C/c3ccco3)CC2)nc1 | 2.11 | 16.4 µM [rising, single point] | – |
| O=C(CSc1nnnn1-c1ccc2c(c1)CCC2)Nc1ccc2c(c1)OCCO2 | -37.8 | – | 16.4 µM [falling, single point] |
| CCOC(=O)COc1ccccc1/C=N/O | -12.5 | 32.6 µM [falling, single point] | – |
| O=C1OC(COc2ccc(Br)cc2)CN1c1ccccc1 (stereo unspecified) | 2.18 | 0.116 µM [rising, full curve, poor fit] | – |
